Experimental data taken from the supplement of paper PMC4604168 (melanoma cell lines).
The list shows a part of the results. Repeats are few or missing, and single values can be far off.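 The apoptosis fraction was the count of cleaved-PARP antibody-stained nuclei relative to all DNA-stained nuclei, imaged in 1,536-well plates. Screening doses were set so most cells survived, and baseline and induced cleaved-PARP levels vary greatly across cell lines.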

These molecules were tested on SkMel5 (assay: cleaved PARP positive nuclei fraction relative to DMSO control; melanoma cells; higher = more apoptosis). Details: library dose: low library concentration; 72 h.

Compound	cleaved PARP positive nuclei fraction [%]
O=C(CCCCCCC(=O)Nc1ccccc1)NO [vorinostat] + COc1ccc2c(c1)CCC1C2CCC2(C)C(NCCCCCCN3C(=O)C=CC3=O)CCC12 [U73122] (first compound 0.08 µM, partner dose 0.4 µM)	109
Cn1nnc2c(C(N)=O)ncn2c1=O [temozolomide] + COc1ccc(COc2ccc(Cc3cnc(N)nc3N)cc2OC)cc1 [GW2580] (first compound 2 µM, partner dose 1 µM)	83.4
OCCn1cc(-c2cnc3nnn(Cc4ccc5ncccc5c4)c3n2)cn1 + COc1ccc(-c2ccc3c(N4CCOCC4)nc(N4C[C@@H](C)O[C@@H](C)C4)nc3n2)cc1CO [KU0063794] (first compound 1 µM, partner dose 0.02 µM)	80.4
Cc1ccc(NC(=O)c2cccc(N(C)C)c2)cc1NC(=O)c1ccc(O)cc1 + Cn1cc(/C=C2\C(=O)Nc3cccnc32)c2ccccc21 [GW441756] (first compound 2 µM, partner dose 0.4 µM)	134
Cc1ccc(NC(=O)c2cccc(N(C)C)c2)cc1NC(=O)c1ccc(O)cc1 + CCCCCCCCCCCC1=C(O)C(=O)C=C(O)C1=O [Embelin] (first compound 2 µM, partner dose 1.2 µM)	82
Cn1cncc1[C@@](N)(c1ccc(Cl)cc1)c1ccc2c(c1)c(-c1cccc(Cl)c1)cc(=O)n2C [tipifarnib] + Cc1cc([N+](=O)[O-])ccc1NS(=O)(=O)c1cc(Cl)ccc1Cl [FH535] (first compound 0.01 µM, partner dose 1 µM)	64
Cn1c(Nc2ccc(C(F)(F)F)cc2)nc2cc(Oc3ccnc(-c4ncc(C(F)(F)F)[nH]4)c3)ccc21 + COc1ccc2c(c1)CCC1C2CCC2(C)C(NCCCCCCN3C(=O)C=CC3=O)CCC12 [U73122] (first compound 0.08 µM, partner dose 0.4 µM)	104
Cn1cncc1[C@@](N)(c1ccc(Cl)cc1)c1ccc2c(c1)c(-c1cccc(Cl)c1)cc(=O)n2C [tipifarnib] + Oc1cc(-c2nc(-c3ccccc3)[nH]c2-c2ccncc2)ccc1Cl [L779450] (first compound 0.01 µM, partner dose 0.2 µM)	60.2
OCCn1cc(-c2cnc3nnn(Cc4ccc5ncccc5c4)c3n2)cn1 + O=C(O)C(=O)Nc1sc2c(c1C(=O)O)CCNC2 [TCS401] (first compound 1 µM, partner dose 1.66667 µM)	32.7
C=CCn1c(=O)c2cnc(Nc3ccc(N4CCN(C)CC4)cc3)nc2n1-c1cccc(C(C)(C)O)n1 + Oc1nc(-c2ccc(C(F)(F)F)cc2)nc2c1CSCC2 [XAV939] (first compound 0.02 µM, partner dose 2 µM)	43.4
Nc1cccc2c1CN(C1CCC(=O)NC1=O)C2=O (centres undefined) [lenalidomide] + CCCCCCCCCCCC1=C(O)C(=O)C=C(O)C1=O [Embelin] (first compound 1 µM, partner dose 1.2 µM)	78.8
C[C@@H]1CCN(C(=O)CC#N)C[C@@H]1N(C)c1ncnc2[nH]ccc12 + Oc1cc(-c2nc(-c3ccccc3)[nH]c2-c2ccncc2)ccc1Cl [L779450] (first compound 1 µM, partner dose 0.2 µM)	77.5
Cc1cc(N2CCOCC2)cc2[nH]c(-c3c(NC[C@@H](O)c4cccc(Cl)c4)cc[nH]c3=O)nc12 + Cc1cc([N+](=O)[O-])ccc1NS(=O)(=O)c1cc(Cl)ccc1Cl [FH535] (first compound 0.2 µM, partner dose 1 µM)	34.5
C=CCn1c(=O)c2cnc(Nc3ccc(N4CCN(C)CC4)cc3)nc2n1-c1cccc(C(C)(C)O)n1 + O=C1NC(=O)/C(=C/c2ccc(-c3ccc(F)cc3O)o2)S1 [AS252424] (first compound 0.02 µM, partner dose 1 µM)	58.9
Cc1ccc(NC(=O)c2cccc(N(C)C)c2)cc1NC(=O)c1ccc(O)cc1 + N#Cc1c(O)c2c(-c3ccc(-c4ccccc4O)cc3)csc2[nH]c1=O [A769662] (first compound 2 µM, partner dose 2 µM)	63.2
Cn1cncc1[C@@](N)(c1ccc(Cl)cc1)c1ccc2c(c1)c(-c1cccc(Cl)c1)cc(=O)n2C [tipifarnib] + CCN(CC)CCCCNc1ncc2cc(-c3cc(OC)cc(OC)c3)c(NC(=O)NC(C)(C)C)nc2n1 [PD173074] (first compound 0.01 µM, partner dose 0.1 µM)	22.5
O=C(CCCCCCC(=O)Nc1ccccc1)NO [vorinostat] + CCCCCCCCCCCC1=C(O)C(=O)C=C(O)C1=O [Embelin] (first compound 0.08 µM, partner dose 1.2 µM)	63.4

Exported with each value named: part of the list above
OCCn1cc(-c2cnc3nnn(Cc4ccc5ncccc5c4)c3n2)cn1 + COc1ccc(-c2ccc3c(N4CCOCC4)nc(N4C[C@@H](C)O[C@@H](C)C4)nc3n2)cc1CO [KU0063794] (first compound 1 µM, partner dose 0.02 µM)
  cleaved PARP positive nuclei fraction [%]: 80.4
C=CCn1c(=O)c2cnc(Nc3ccc(N4CCN(C)CC4)cc3)nc2n1-c1cccc(C(C)(C)O)n1 + O=C1NC(=O)/C(=C/c2ccc(-c3ccc(F)cc3O)o2)S1 [AS252424] (first compound 0.02 µM, partner dose 1 µM)
  cleaved PARP positive nuclei fraction [%]: 58.9

(cont.)

Compound	cleaved PARP positive nuclei fraction [%]
Cn1nnc2c(C(N)=O)ncn2c1=O [temozolomide] + Cn1cc(/C=C2\C(=O)Nc3cccnc32)c2ccccc21 [GW441756] (first compound 2 µM, partner dose 0.4 µM)	143
Nc1cccc2c1CN(C1CCC(=O)NC1=O)C2=O (centres undefined) [lenalidomide] + COc1cc2ncnc(Nc3ccc(Oc4ccccc4)cc3)c2cc1OC [SrcI1] (first compound 1 µM, partner dose 2 µM)	130
COc1cc(Nc2ncc(F)c(Nc3ccc4c(n3)NC(=O)C(C)(C)O4)n2)cc(OC)c1OC [Tamatinib] + CCc1ccc(CCOc2ccc(CC3SC(=O)NC3=O)cc2)nc1 [pioglitazone] (first compound 0.4 µM, partner dose 2 µM)	66.8
Cc1nc(Nc2ncc(C(=O)Nc3c(C)cccc3Cl)s2)cc(N2CCN(CCO)CC2)n1 [dasatanib] + COc1cc(N2CCC(N3CCN(C)CC3)CC2)ccc1Nc1ncc(Cl)c(Nc2ccccc2S(=O)(=O)C(C)C)n1 [NVP-TAE684] (first compound 0.004 µM, partner dose 0.08 µM)	99.5
Cn1c(Nc2ccc(C(F)(F)F)cc2)nc2cc(Oc3ccnc(-c4ncc(C(F)(F)F)[nH]4)c3)ccc21 + Cc1cc([N+](=O)[O-])ccc1NS(=O)(=O)c1cc(Cl)ccc1Cl [FH535] (first compound 0.08 µM, partner dose 1 µM)	118
O=C(CCCCCCC(=O)Nc1ccccc1)NO [vorinostat] + O=S(=O)(c1ccccc1)N(CC(F)(F)F)c1ccc(C(O)(C(F)(F)F)C(F)(F)F)cc1 [T0901317] (first compound 0.08 µM, partner dose 1.4 µM)	38.9
CC(C)(C)c1cnc(CSc2cnc(NC(=O)C3CCNCC3)s2)o1 + CCc1ccc(CCOc2ccc(CC3SC(=O)NC3=O)cc2)nc1 [pioglitazone] (first compound 0.01 µM, partner dose 2 µM)	28.9
COc1cc(Nc2ncc(F)c(Nc3ccc4c(n3)NC(=O)C(C)(C)O4)n2)cc(OC)c1OC [Tamatinib] + Cn1cc(/C=C2\C(=O)Nc3cccnc32)c2ccccc21 [GW441756] (first compound 0.4 µM, partner dose 0.4 µM)	135
C#Cc1cccc(Nc2ncnc3cc(OCCOC)c(OCCOC)cc23)c1 [erlotinib] + N#Cc1c(O)c2c(-c3ccc(-c4ccccc4O)cc3)csc2[nH]c1=O [A769662] (first compound 0.8 µM, partner dose 2 µM)	26.9
OCCn1cc(-c2cnc3nnn(Cc4ccc5ncccc5c4)c3n2)cn1 + COc1cc(N2CCC(N3CCN(C)CC3)CC2)ccc1Nc1ncc(Cl)c(Nc2ccccc2S(=O)(=O)C(C)C)n1 [NVP-TAE684] (first compound 1 µM, partner dose 0.08 µM)	125
O=C(Nc1cccc(Cl)c1)Nc1ncc(CCNc2ncnc3ccsc23)s1 + COc1ccc(COc2ccc(Cc3cnc(N)nc3N)cc2OC)cc1 [GW2580] (first compound 0.0008 µM, partner dose 1 µM)	60.2
Cc1nc(Nc2ncc(C(=O)Nc3c(C)cccc3Cl)s2)cc(N2CCN(CCO)CC2)n1 [dasatanib] + O=C1NC(=O)/C(=C/c2ccc(-c3ccc(F)cc3O)o2)S1 [AS252424] (first compound 0.004 µM, partner dose 1 µM)	34.2
C[C@]1(c2nc3c(C(N)=O)cccc3[nH]2)CCCN1 [Veliparib] + Cc1cc([N+](=O)[O-])ccc1NS(=O)(=O)c1cc(Cl)ccc1Cl [FH535] (first compound 1.4 µM, partner dose 1 µM)	44.7
C[C@@H]1CCN(C(=O)CC#N)C[C@@H]1N(C)c1ncnc2[nH]ccc12 + COc1cc2ncnc(Nc3ccc(Oc4ccccc4)cc3)c2cc1OC [SrcI1] (first compound 1 µM, partner dose 2 µM)	119
CC1(C)NC(=O)N(c2ccc([N+](=O)[O-])c(C(F)(F)F)c2)C1=O [nilutamide] + c1cc(-c2cnn3cc(-c4ccc(OCCN5CCCCC5)cc4)cnc23)ccn1 [Dorsomorphin] (first compound 1 µM, partner dose 0.4 µM)	132
C[C@@H]1CCN(C(=O)CC#N)C[C@@H]1N(C)c1ncnc2[nH]ccc12 + c1cc(-c2cnn3cc(-c4ccc(OCCN5CCCCC5)cc4)cnc23)ccn1 [Dorsomorphin] (first compound 1 µM, partner dose 0.4 µM)	58.9
NC(=O)Nc1cc(-c2cccc(F)c2)sc1C(=O)N[C@H]1CCCNC1 + O=S(=O)(c1ccccc1)N(CC(F)(F)F)c1ccc(C(O)(C(F)(F)F)C(F)(F)F)cc1 [T0901317] (first compound 0.02 µM, partner dose 1.4 µM)	32.1
